Measurements taken from PMC7256045.

Protein sequences, listed by entry. Tags and fused reporters are not part of them. Lines headed by an entry give the natural chain unless they say otherwise; changes in a name come on top.
UniProt O15382: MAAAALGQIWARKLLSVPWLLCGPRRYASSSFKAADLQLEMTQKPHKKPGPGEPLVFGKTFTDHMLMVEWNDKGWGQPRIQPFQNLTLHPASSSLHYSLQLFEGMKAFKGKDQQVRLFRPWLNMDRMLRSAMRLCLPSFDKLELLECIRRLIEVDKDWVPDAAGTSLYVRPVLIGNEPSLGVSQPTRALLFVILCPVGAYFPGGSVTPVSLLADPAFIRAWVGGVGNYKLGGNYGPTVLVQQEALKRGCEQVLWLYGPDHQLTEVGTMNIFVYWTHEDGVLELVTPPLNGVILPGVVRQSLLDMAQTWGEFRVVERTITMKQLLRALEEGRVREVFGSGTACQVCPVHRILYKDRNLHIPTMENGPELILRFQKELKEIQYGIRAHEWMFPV
UniProt Q92793: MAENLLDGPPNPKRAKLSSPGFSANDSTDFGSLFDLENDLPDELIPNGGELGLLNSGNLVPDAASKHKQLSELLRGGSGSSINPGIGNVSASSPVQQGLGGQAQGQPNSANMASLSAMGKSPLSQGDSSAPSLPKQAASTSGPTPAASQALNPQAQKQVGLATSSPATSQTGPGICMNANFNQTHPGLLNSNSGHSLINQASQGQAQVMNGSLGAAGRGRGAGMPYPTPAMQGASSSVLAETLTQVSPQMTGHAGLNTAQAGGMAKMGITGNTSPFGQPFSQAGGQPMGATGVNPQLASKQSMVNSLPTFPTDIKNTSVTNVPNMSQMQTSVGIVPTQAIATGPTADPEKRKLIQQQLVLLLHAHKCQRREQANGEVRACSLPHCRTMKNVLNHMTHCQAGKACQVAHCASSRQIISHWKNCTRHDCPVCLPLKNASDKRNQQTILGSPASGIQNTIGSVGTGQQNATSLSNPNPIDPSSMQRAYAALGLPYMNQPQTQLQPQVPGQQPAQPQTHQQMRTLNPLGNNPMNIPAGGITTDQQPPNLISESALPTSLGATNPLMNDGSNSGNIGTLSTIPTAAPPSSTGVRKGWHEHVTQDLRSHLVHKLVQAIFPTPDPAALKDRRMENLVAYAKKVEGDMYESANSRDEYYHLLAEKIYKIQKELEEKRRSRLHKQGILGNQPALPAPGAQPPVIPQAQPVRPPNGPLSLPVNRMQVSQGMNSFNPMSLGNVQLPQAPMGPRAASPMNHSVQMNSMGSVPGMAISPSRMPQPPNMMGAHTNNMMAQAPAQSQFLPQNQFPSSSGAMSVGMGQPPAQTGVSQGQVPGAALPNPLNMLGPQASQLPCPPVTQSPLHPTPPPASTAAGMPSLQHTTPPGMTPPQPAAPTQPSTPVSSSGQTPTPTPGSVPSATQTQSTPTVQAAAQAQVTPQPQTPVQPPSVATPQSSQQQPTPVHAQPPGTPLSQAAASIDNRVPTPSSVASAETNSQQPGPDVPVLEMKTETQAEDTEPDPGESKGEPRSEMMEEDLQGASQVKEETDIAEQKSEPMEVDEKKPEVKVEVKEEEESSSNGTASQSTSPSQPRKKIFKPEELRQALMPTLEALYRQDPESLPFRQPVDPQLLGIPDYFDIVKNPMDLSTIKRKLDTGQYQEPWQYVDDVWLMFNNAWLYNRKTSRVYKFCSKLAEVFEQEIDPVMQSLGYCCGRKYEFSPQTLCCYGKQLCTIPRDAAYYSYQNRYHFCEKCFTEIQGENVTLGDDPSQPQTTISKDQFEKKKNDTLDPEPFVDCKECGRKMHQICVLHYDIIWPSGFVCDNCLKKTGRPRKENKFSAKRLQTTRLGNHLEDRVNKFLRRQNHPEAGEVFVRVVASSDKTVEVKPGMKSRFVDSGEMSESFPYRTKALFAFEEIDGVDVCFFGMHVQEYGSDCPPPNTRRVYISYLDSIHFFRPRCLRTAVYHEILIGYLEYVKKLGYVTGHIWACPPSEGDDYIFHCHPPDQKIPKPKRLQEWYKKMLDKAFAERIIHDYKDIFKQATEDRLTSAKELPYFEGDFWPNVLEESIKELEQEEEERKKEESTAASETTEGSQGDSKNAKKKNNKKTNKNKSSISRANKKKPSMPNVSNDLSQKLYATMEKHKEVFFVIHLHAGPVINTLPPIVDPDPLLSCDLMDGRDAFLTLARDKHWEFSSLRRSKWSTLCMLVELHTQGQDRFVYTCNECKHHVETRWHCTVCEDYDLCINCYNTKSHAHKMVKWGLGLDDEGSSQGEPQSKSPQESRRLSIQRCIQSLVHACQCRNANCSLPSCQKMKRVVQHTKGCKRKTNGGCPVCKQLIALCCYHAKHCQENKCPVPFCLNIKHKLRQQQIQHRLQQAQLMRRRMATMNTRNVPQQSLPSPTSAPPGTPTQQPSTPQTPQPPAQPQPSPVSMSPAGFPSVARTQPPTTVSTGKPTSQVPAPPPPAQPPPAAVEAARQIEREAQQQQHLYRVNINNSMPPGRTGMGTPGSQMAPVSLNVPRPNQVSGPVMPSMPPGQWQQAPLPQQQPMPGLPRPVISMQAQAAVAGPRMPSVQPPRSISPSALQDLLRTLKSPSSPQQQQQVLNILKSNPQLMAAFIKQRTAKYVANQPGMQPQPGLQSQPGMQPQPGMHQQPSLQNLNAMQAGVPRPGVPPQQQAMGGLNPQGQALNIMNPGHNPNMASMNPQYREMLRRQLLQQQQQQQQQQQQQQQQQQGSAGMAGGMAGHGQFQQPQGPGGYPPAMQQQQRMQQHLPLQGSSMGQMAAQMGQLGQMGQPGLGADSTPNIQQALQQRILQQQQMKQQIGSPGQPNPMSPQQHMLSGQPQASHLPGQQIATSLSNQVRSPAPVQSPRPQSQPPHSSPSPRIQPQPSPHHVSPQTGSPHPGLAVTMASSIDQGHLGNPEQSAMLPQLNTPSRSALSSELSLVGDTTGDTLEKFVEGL

Key:
[1] = biological target: His-BCAT2 (branched-chain amino acid transaminase 2) (human) (UniProt O15382); assay: pull-down; His-BCAT2 purified on Ni-NTA agarose beads, incubated with cell lysate overnight at 4 °C; beads washed three times with 0.3% NP-40 buffer; western blot; non-induced E. coli as control; only the target purified
[2] = biological target: His-BCAT2 (branched-chain amino acid transaminase 2) (human) (UniProt O15382); assay: as above; remark: listed apart in the source

| binding [1] | binding [2] | Molecule |
| --- | --- | --- |
| binds |  | cAMP-responsive element-binding (CREB)-binding protein (CBP) (from UniProt Q92793 1-2442) |
|  | binds | SIRT4 (endogenous) (enzyme, UniProt Q9Y6E7 29-314) IGLFVPASPPLDPEKVKELQRFITLSKRLLVMTGAGISTESGIPDYRSEKVGLYARTDRRPIQHGDFVRSAPIRQRYWARNFVGWPQFSSHQPNPAHWALSTWEKLGKLYWLVTQNVDALHTKAGSRRLTELHGCMDRVLCLDCGEQTPRGVLQERFQVLNPTWSAEAHGLAPDGDVFLSEEQVRSFQVPTCVQCGGHLKPDVVFFGDTVNPDKVDFVHKRVKEADSLLVVGSSLQVYSGYRFILTAWEKKLPIAILNIGPTRSDDLACLKLNSRCGELLPLIDPC |

Where two headings read alike, the source gives them in different places. These are yes or no findings as the source states them, for the method shown. Binding seen in cells or lysates may run through a third protein. Binding calls can cover weak binding; strength is not graded here.
